Experiment [1] concerns the target calreticulin (CRT) (human (endogenous in MDA-MB-231 and MDA-MB-231/DX)) (UniProt P27797). Put plainly: proximity ligation; DuoLink In Situ Kit on MDA-MB-231 and MDA-MB-231/DX cells with mouse anti-Pgp (UIC-2) and rabbit anti-CRT (PA3-900); cells treated 24 h with 5 uM doxorubicin, with or without 75 nM Tariquidar or 75 nM R-3.
The target is the same in experiment [2]. In words: co-IP; 100 ug plasma membrane-associated proteins (surface biotinylation) of MDA-MB-231 and MDA-MB-231/DX cells immunoprecipitated with anti-CRT, blotted for Pgp; cells treated 24 h with 5 uM doxorubicin, with or without 75 nM Tariquidar or 75 nM R-3.

No constants are given. Whether binding was seen depends on the method and setting. Binding seen in cells or lysates may run through a third protein. Some entries that bind do so weakly or less than the wild type.

“ATP Binding Cassette transporter B1 or P-glycoprotein (ABCB1/Pgp) (from UniProt P08183 1-1280)”: the binding entry in experiment [1] and in experiment [2] was “binds” each time.

The values are drawn from publication PMC7226521.
